Results: US20110177504A1
These are yes or no findings as the source states them, for the method shown. For some of these results: In cells and extracts the contact can be indirect. Some results given as binding are weak or reduced against the parent protein; the word gives no strength. For some of these results: Where a sequence is shown, tags or fusion partners need not be part of it.

Tests used:
[1] = target: T1, GLG-1 (ESL-1) polypeptide, expressed in transfected COS cells (human) (UniProt Q92896); test: expression cloning; transfected COS cells stained with LYPD5-Fc
T1 sequence (looked up): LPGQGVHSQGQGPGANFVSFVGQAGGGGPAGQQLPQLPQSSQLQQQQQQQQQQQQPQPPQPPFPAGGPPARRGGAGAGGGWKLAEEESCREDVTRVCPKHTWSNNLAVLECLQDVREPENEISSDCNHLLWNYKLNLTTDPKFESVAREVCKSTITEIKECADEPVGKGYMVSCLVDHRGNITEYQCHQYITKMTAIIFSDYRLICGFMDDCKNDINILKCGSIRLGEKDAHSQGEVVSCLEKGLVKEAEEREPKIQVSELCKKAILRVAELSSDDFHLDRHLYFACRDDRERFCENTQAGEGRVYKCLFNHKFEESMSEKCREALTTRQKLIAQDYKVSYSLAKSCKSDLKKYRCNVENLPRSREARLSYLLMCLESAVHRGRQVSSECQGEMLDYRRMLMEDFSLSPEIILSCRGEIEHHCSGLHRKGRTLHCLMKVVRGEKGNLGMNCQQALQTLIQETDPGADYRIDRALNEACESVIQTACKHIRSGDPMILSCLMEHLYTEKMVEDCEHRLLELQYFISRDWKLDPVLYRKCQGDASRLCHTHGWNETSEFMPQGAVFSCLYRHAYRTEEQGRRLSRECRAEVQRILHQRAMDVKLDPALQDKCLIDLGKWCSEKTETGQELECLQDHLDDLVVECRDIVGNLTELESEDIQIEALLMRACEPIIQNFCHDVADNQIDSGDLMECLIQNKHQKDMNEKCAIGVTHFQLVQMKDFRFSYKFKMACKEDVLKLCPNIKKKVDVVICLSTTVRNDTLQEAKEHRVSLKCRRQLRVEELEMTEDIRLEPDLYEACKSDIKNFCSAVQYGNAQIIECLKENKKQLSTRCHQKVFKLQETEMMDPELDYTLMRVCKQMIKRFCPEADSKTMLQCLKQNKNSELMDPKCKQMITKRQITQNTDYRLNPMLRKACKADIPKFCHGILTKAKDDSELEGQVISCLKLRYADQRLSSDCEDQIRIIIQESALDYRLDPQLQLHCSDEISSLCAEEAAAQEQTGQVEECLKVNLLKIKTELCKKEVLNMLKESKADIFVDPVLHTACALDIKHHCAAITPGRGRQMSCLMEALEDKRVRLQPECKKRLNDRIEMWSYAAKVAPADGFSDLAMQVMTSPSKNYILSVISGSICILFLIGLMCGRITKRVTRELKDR

[2] = target: T1, GLG-1 (ESL-1) polypeptide, expressed in transfected COS cells (human); test: transfected COS cells stained with LYPD5-Fc
[3] = target: T2, LYPD5 (as used in the co-immunoprecipitation studies) (human) (UniProt Q6UWN5); test: co-immunoprecipitation (FIG. 34B)
T2 sequence: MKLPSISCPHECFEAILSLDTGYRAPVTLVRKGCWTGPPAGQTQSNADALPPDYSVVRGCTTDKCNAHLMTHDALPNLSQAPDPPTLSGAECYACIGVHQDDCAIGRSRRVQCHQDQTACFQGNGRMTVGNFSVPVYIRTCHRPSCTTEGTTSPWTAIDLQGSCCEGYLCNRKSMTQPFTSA

[4] = target: T2, LYPD5 (as used in the co-immunoprecipitation studies) (human); test: co-immunoprecipitation (FIG. 33B)
[5] = target: T2, LYPD5 (as used in the co-immunoprecipitation studies) (human); test: co-immunoprecipitation (FIG. 35B)

B1: LYPD5-Fc protein (Fc fusion, not shown: a dimerising Fc or GST)
chain: MKLPSISCPHECFEAILSLDTGYRAPVTLVRKGCWTGPPAGQTQSNADALPPDYSVVRGCTTDKCNAHLMTHDALPNLSQAPDPPTLSGAECYACIGVHQDDCAIGRSRRVQCHQDQTACFQGNGRMTVGNFSVPVYIRTCHRPSCTTEGTTSPWTAIDLQGSCCEGYLCNRKSMTQPFTSA
In the case of B1, the binding [1] is reported as “binds” and the binding [2] is reported as “binds”.

B2: GLG-1 ECD Fragment 4 (protein, human, UniProt Q92896 796-1145, looked up)
chain: RVSLKCRRQLRVEELEMTEDIRLEPDLYEACKSDIKNFCSAVQYGNAQIIECLKENKKQLSTRCHQKVFKLQETEMMDPELDYTLMRVCKQMIKRFCPEADSKTMLQCLKQNKNSELMDPKCKQMITKRQITQNTDYRLNPMLRKACKADIPKFCHGILTKAKDDSELEGQVISCLKLRYADQRLSSDCEDQIRIIIQESALDYRLDPQLQLHCSDEISSLCAEEAAAQEQTGQVEECLKVNLLKIKTELCKKEVLNMLKESKADIFVDPVLHTACALDIKHHCAAITPGRGRQMSCLMEALEDKRVRLQPECKKRLNDRIEMWSYAAKVAPADGFSDLAMQVMTSPSKN
B2 was tested, and the binding [3] was “binds” and the binding [4] was “binds”.

With EESCREDVTRVCPKHTWSNNLAVLECLQDVREPEN (peptide, human, UniProt Q92896 115-149, looked up) [single GLG-1 domain 115] the binding [5] was “binds” and the binding [3] was “binds”.

B3: single GLG-1 domain 150 (protein, human, UniProt Q92896 150-214, looked up)
chain: EISSDCNHLLWNYKLNLTTDPKFESVAREVCKSTITEIKECADEPVGKGYMVSCLVDHRGNITEY
In the case of B3, the binding [3] is reported as “binds”.

B4: single GLG-1 domain 215 (protein, human, UniProt Q92896 215-285, looked up)
chain: QCHQYITKMTAIIFSDYRLICGFMDDCKNDINILKCGSIRLGEKDAHSQGEVVSCLEKGLVKEAEEREPKI
In the case of B4, the binding [3] is reported as “binds”.

B5: single GLG-1 domain 538 (protein, human, UniProt Q92896 538-608, looked up)
chain: MVEDCEHRLLELQYFISRDWKLDPVLYRKCQGDASRLCHTHGWNETSEFMPQGAVFSCLYRHAYRTEEQGR
For B5, the binding [3] was “binds”.

B6: single GLG-1 domain 609 (protein, human, UniProt Q92896 609-669, looked up)
chain: RLSRECRAEVQRILHQRAMDVKLDPALQDKCLIDLGKWCSEKTETGQELECLQDHLDDLVV
B6 was tested, and the binding [3] was “binds”.

B7: single GLG-1 domain 670 (protein, human, UniProt Q92896 670-728, looked up)
chain: ECRDIVGNLTELESEDIQIEALLMRACEPIIQNFCHDVADNQIDSGDLMECLIQNKHQK
For B7, the binding [3] was “binds”.

B8: single GLG-1 domain 729 (protein, human, UniProt Q92896 729-795, looked up)
chain: DMNEKCAIGVTHFQLVQMKDFRFSYKFKMACKEDVLKLCPNIKKKVDVVICLSTTVRNDTLQEAKEH
For B8, the binding [3] was “binds”.

B9: single GLG-1 domain 858 (protein, human, UniProt Q92896 858-921, looked up)
chain: RCHQKVFKLQETEMMDPELDYTLMRVCKQMIKRFCPEADSKTMLQCLKQNKNSELMDPKCKQMI
B9 was tested, and the binding [3] was “binds”.

B10: GLG-1 ECD Fragment 1 (protein, human, UniProt Q92896 26-285, looked up)
chain: GAEKLPGQGVHSQGQGPGANFVSFVGQAGGGGPAGQQLPQLPQSSQLQQQQQQQQQQQQPQPPQPPFPAGGPPARRGGAGAGGGWKLAEEESCREDVTRVCPKHTWSNNLAVLECLQDVREPENEISSDCNHLLWNYKLNLTTDPKFESVAREVCKSTITEIKECADEPVGKGYMVSCLVDHRGNITEYQCHQYITKMTAIIFSDYRLICGFMDDCKNDINILKCGSIRLGEKDAHSQGEVVSCLEKGLVKEAEEREPKI
With B10 the binding [3] was “binds” and the binding [4] was “binds”.

B11: GLG-1 ECD Fragment 2 (protein, human, UniProt Q92896 286-537, looked up)
chain: QVSELCKKAILRVAELSSDDFHLDRHLYFACRDDRERFCENTQAGEGRVYKCLFNHKFEESMSEKCREALTTRQKLIAQDYKVSYSLAKSCKSDLKKYRCNVENLPRSREARLSYLLMCLESAVHRGRQVSSECQGEMLDYRRMLMEDFSLSPEIILSCRGEIEHHCSGLHRKGRTLHCLMKVVRGEKGNLGMNCQQALQTLIQETDPGADYRIDRALNEACESVIQTACKHIRSGDPMILSCLMEHLYTEK
With B11 the binding [3] was “binds” and the binding [4] was “binds”.

B12: GLG-1 ECD Fragment 3 (protein, human, UniProt Q92896 538-795, looked up)
chain: MVEDCEHRLLELQYFISRDWKLDPVLYRKCQGDASRLCHTHGWNETSEFMPQGAVFSCLYRHAYRTEEQGRRLSRECRAEVQRILHQRAMDVKLDPALQDKCLIDLGKWCSEKTETGQELECLQDHLDDLVVECRDIVGNLTELESEDIQIEALLMRACEPIIQNFCHDVADNQIDSGDLMECLIQNKHQKDMNEKCAIGVTHFQLVQMKDFRFSYKFKMACKEDVLKLCPNIKKKVDVVICLSTTVRNDTLQEAKEH
In the case of B12, the binding [3] is reported as “binds” and the binding [4] is reported as “binds”.
